Results are given in words; binding and its absence hold for the method and conditions named. In cells and extracts the contact can be indirect. Some binding calls cover weakened binding; strength is not graded here. For some assays here: Where a sequence is shown, tags or fusion partners need not be part of it.

Protein sequences, listed by entry. Tags and fused reporters are not part of them. Lines headed by an entry give the natural chain unless they say otherwise; changes in a name come on top.
UniProt Q01968: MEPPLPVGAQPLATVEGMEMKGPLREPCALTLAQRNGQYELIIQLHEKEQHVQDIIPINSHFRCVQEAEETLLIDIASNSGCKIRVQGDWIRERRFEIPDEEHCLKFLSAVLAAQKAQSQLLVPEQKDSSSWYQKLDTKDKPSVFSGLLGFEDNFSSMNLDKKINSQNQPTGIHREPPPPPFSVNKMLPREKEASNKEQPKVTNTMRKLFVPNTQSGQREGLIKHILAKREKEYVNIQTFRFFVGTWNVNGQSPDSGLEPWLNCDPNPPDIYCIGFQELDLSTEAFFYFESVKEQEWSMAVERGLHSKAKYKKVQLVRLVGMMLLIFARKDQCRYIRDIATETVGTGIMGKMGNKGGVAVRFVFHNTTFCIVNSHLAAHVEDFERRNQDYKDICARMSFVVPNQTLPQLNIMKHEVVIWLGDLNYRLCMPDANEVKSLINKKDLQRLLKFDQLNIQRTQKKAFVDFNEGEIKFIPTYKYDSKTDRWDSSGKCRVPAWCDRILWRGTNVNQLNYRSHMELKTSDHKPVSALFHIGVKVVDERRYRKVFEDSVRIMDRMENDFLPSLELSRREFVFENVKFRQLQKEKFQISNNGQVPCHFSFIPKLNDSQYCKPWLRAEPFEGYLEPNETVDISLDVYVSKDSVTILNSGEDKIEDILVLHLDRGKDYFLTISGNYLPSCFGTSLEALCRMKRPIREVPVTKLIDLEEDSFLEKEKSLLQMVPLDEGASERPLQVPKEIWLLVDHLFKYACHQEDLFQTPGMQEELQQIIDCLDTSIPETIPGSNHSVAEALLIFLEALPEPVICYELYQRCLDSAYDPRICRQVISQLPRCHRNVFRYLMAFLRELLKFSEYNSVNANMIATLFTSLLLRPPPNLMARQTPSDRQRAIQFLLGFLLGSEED
UniProt P61006: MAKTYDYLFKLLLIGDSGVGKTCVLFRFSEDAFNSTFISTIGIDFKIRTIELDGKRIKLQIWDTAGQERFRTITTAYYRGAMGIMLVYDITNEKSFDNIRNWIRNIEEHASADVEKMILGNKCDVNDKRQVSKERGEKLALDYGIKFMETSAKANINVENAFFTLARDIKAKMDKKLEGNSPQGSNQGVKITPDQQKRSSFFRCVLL
UniProt P55258: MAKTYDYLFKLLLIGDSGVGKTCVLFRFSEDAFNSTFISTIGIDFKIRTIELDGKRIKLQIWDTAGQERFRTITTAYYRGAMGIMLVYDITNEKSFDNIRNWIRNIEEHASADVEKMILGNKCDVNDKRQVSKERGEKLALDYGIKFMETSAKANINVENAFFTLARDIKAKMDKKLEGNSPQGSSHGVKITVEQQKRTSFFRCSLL

The target in one test is GST-OCRL (UniProt Q01968). Nature of the test: pull-down.
Another test has as its target T1, C9orf72-GFP (UniProt Q96LT7).
T1 sequence: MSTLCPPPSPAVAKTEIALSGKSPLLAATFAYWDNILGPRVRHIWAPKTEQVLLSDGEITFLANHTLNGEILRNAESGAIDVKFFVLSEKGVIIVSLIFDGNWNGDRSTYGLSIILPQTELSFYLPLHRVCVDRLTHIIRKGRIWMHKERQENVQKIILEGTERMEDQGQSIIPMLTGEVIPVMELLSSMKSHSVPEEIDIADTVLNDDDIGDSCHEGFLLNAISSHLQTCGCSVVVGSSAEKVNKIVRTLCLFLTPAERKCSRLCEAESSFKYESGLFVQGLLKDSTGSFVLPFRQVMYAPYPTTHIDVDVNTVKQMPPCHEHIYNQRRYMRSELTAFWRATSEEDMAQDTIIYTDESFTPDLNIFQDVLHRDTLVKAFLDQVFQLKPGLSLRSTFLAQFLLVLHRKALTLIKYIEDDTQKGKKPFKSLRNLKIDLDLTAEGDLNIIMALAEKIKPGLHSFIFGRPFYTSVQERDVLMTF
Nature of the test: co-IP.

The next test addresses T2, SMCR8-GFP (UniProt Q8TEV9).
T2 sequence: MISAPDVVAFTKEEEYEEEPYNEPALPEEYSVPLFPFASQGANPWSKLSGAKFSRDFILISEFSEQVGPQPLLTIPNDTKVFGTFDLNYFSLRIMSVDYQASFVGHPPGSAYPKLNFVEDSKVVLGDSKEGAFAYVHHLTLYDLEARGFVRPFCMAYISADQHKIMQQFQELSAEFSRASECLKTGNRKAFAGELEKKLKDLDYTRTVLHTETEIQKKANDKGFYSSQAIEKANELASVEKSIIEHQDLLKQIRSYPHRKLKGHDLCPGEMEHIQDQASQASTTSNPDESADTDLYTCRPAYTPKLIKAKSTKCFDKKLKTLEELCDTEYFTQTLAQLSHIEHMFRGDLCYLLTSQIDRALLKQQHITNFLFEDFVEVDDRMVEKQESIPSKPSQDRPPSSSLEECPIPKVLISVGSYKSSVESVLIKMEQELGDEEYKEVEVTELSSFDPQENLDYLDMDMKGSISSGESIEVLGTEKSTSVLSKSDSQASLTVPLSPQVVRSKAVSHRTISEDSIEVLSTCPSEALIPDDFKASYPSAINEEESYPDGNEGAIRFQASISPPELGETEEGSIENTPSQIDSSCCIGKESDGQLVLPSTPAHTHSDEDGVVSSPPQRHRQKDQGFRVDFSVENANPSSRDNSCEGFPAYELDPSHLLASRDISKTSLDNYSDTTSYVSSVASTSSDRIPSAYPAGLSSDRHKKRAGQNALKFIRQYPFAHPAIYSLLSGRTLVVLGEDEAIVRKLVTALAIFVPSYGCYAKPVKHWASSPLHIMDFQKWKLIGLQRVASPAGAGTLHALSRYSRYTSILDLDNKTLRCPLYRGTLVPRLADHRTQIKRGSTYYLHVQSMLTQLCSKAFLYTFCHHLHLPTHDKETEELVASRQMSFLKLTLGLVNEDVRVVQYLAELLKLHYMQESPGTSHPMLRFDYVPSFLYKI
Nature of the test: co-IP.

In test [1] the target is GFP-tagged RAB8A Q67L (GTP-bound) (UniProt P61006). Nature of the test: co-IP.

Consider “RAB8A (GTP-bound form), endogenous in BV2 cells (from UniProt P55258 1-207)”, for which the binding entry in the test with GST-OCRL was “binds”.

As to pT72-RAB8A (from UniProt P55258 1-207), the binding result in the test with C9orf72-GFP and with SMCR8-GFP was “binds” in each case.

B1: C9orf72 (of the C9orf72/SMCR8 complex, in HEK293T cells) (protein, UniProt Q96LT7 1-481)
chain: MSTLCPPPSPAVAKTEIALSGKSPLLAATFAYWDNILGPRVRHIWAPKTEQVLLSDGEITFLANHTLNGEILRNAESGAIDVKFFVLSEKGVIIVSLIFDGNWNGDRSTYGLSIILPQTELSFYLPLHRVCVDRLTHIIRKGRIWMHKERQENVQKIILEGTERMEDQGQSIIPMLTGEVIPVMELLSSMKSHSVPEEIDIADTVLNDDDIGDSCHEGFLLNAISSHLQTCGCSVVVGSSAEKVNKIVRTLCLFLTPAERKCSRLCEAESSFKYESGLFVQGLLKDSTGSFVLPFRQVMYAPYPTTHIDVDVNTVKQMPPCHEHIYNQRRYMRSELTAFWRATSEEDMAQDTIIYTDESFTPDLNIFQDVLHRDTLVKAFLDQVFQLKPGLSLRSTFLAQFLLVLHRKALTLIKYIEDDTQKGKKPFKSLRNLKIDLDLTAEGDLNIIMALAEKIKPGLHSFIFGRPFYTSVQERDVLMTF
With B1, in test [1], the binding entry is given as “binds”.

B2: SMCR8 (of the C9orf72/SMCR8 complex, in HEK293T cells) (protein, UniProt Q8TEV9 1-937)
chain: MISAPDVVAFTKEEEYEEEPYNEPALPEEYSVPLFPFASQGANPWSKLSGAKFSRDFILISEFSEQVGPQPLLTIPNDTKVFGTFDLNYFSLRIMSVDYQASFVGHPPGSAYPKLNFVEDSKVVLGDSKEGAFAYVHHLTLYDLEARGFVRPFCMAYISADQHKIMQQFQELSAEFSRASECLKTGNRKAFAGELEKKLKDLDYTRTVLHTETEIQKKANDKGFYSSQAIEKANELASVEKSIIEHQDLLKQIRSYPHRKLKGHDLCPGEMEHIQDQASQASTTSNPDESADTDLYTCRPAYTPKLIKAKSTKCFDKKLKTLEELCDTEYFTQTLAQLSHIEHMFRGDLCYLLTSQIDRALLKQQHITNFLFEDFVEVDDRMVEKQESIPSKPSQDRPPSSSLEECPIPKVLISVGSYKSSVESVLIKMEQELGDEEYKEVEVTELSSFDPQENLDYLDMDMKGSISSGESIEVLGTEKSTSVLSKSDSQASLTVPLSPQVVRSKAVSHRTISEDSIEVLSTCPSEALIPDDFKASYPSAINEEESYPDGNEGAIRFQASISPPELGETEEGSIENTPSQIDSSCCIGKESDGQLVLPSTPAHTHSDEDGVVSSPPQRHRQKDQGFRVDFSVENANPSSRDNSCEGFPAYELDPSHLLASRDISKTSLDNYSDTTSYVSSVASTSSDRIPSAYPAGLSSDRHKKRAGQNALKFIRQYPFAHPAIYSLLSGRTLVVLGEDEAIVRKLVTALAIFVPSYGCYAKPVKHWASSPLHIMDFQKWKLIGLQRVASPAGAGTLHALSRYSRYTSILDLDNKTLRCPLYRGTLVPRLADHRTQIKRGSTYYLHVQSMLTQLCSKAFLYTFCHHLHLPTHDKETEELVASRQMSFLKLTLGLVNEDVRVVQYLAELLKLHYMQESPGTSHPMLRFDYVPSFLYKI
On to B2, for which, in test [1], the binding entry is recorded as “binds”.

The record behind these values is publication doi:10.1101/2025.08.22.671707.
